These are yes or no findings as the source states them, for the method shown. In cells and extracts the contact can be indirect. These calls come from enrichment with a bait or labelling near it, and not all partners need be listed. Where a sequence is shown, tags or fusion partners need not be part of it.

In the experiment the target is T1, Lon^TRAP-Twin-Strep-tag (Lon S674A active-site mutant) (C. crescentus) (UniProt B8GX12).
T1 sequence: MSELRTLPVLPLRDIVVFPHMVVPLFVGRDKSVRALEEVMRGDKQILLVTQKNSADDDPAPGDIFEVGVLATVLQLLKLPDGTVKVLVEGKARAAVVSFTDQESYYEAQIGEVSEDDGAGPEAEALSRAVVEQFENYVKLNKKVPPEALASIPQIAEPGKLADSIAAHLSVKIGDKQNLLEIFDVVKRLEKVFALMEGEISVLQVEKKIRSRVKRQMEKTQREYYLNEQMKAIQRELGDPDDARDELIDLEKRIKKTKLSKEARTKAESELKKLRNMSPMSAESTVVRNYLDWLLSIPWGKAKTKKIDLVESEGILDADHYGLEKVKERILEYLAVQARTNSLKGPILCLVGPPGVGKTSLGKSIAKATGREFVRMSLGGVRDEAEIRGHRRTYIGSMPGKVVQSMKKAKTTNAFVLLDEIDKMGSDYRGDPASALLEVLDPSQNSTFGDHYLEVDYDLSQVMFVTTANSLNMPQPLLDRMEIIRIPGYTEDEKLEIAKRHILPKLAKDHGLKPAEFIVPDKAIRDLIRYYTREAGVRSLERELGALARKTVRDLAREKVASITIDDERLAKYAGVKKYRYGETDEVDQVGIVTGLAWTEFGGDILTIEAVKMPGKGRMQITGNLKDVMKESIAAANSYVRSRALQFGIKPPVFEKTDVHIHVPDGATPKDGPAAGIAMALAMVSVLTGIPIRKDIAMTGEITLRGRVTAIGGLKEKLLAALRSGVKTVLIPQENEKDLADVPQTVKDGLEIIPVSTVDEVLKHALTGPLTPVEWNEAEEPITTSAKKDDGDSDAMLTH
Description: affinity purification with mass spectrometry.
As for DnaA, the binding result is listed as “binds”. As for FliK, the binding entry is “binds”. As for FliX, the binding result was “binds”.

As for “LarA (Lon activity regulator A, CCNA_03707)”, the binding entry is on record as “binds”.

As to StaR, the binding result was “binds”.
